According to patent EP4786483A1 (priority 2023, dated 2025):

Experiment: general procedure: solution-phase peptide synthesis; HATU/DIEA; DCC/DMAP; TCFH/NMI
Settings: late stage modification step

Substance | step yield [%]
(S)-N-((3R,4S,5S)-1-((S)-2-((1R,2R)-3-((R)-2-(3-aminophenyl)-1,1-dioxidothiomorpholino)-1-methoxy-2-methyl-3-oxopropyl)pyrrolidin-1-yl)-3-methoxy-5-methyl-1-oxoheptan-4-yl)-2-((S)-2-(dimethylamino)-3-methylbutanamido)-N,3-dimethylbutanamide | 60.31
(S)-N-((3R,4S,55)-1-((S)-2-((1R,2R)-3-((R)-2-(3-aminophenyl)morpholino)-1-methoxy-2-methyl-3-oxopropyl)pyrrolidin-1-yl)-3-methoxy-5-methyl-1-oxoheptan-4-yl)-2-((S)-2-(dimethylamino)-3-methylbutanamido)-N,3-dimethylbutanamide | 75.07
(S)-N-((3R,4S,5S)-1-((S)-2-((1R,2R)-3-((R)-2-(3-aminophenyl)thiomorpholino)-1-methoxy-2-methyl-3-oxopropyl)pyrrolidin-1-yl)-3-methoxy-5-methyl-1-oxoheptan-4-yl)-2-((S)-2-(dimethylamino)-3-methylbutanamido)-N,3-dimethylbutanamide | 50.55
(S)-N-((3R,4S,5S)-1-((S)-2-((1R,2R)-3-((3-aminophenethyl)(methoxy)amino)-1-methoxy-2-methyl-3-oxopropyl)pyrrolidin-1-yl)-3-methoxy-5-methyl-1-oxoheptan-4-yl)-2-((S)-2-(dimethylamino)-3-methylbutanamido)-N,3-dimethylbutanamide | 26.00
(S)-N-((3R,4S,5S)-1-((S)-2-((1R,2R)-3-((3-aminophenethyl)(prop-2-yn-1-yl)amino)-1-methoxy-2-methyl-3-oxopropyl)pyrrolidin-1-yl)-3-methoxy-5-methyl-1-oxoheptan-4-yl)-2-((S)-2-(dimethylamino)-3-methylbutanamido)-N,3-dimethylbutanamide | 11.52
(S)-1-(3-aminophenyl)propan-2-yl (2R,3R)-3-((S)-1-((3R,4S,5S)-4-((S)-2-((S)-2-(dimethylamino)-3-methylbutanamido)-N,3-dimethylbutanamido)-3-methoxy-5-methylheptanoyl)pyrrolidin-2-yl)-3-methoxy-2-methylpropanoate | 52
(S)-N-((3R,4S,SS)-1-((S)-2-((1R,2R)-3-((S)-2-(3-aminophenyl)morpholino)-1-methoxy-2-methyl-3-oxopropyl)pyrrolidin-1-yl)-3-methoxy-5-methyl-1-oxoheptan-4-yl)-2-((S)-2-(dimethylamino)-3-methylbutanamido)-N,3-dimethylbutanamide | 90.12
(S)-N-((3R,4S,5S)-1-((S)-2-((1R,2R)-3-(((S)-1-(3-aminophenyl)-3-chloropropan-2-yl)amino)-1-methoxy-2-methyl-3-oxopropyl)pyrrolidin-1-yl)-3-methoxy-5-methyl-1-oxoheptan-4-yl)-2-((S)-2-(dimethylamino)-3-methylbutanamido)-N,3-dimethylbutanamide | 18.19
(S)-N-((3R,4S,5S)-1-((S)-2-((1R,2R)-3-((S)-2-(3-aminophenyl)-1,1-dioxidothiomorpholino)-1-methoxy-2-methyl-3-oxopropyl)pyrrolidin-1-yl)-3-methoxy-5-methyl-1-oxoheptan-4-yl)-2-((S)-2-(dimethylamino)-3-methylbutanamido)-N,3-dimethylbutanamide | 60.31
(S)-1-(3-aminophenyl)-3-cyanopropan-2-yl (2R,3R)-3-((S)-1-((3R,4S,5S)-4-((S)-2-((S)-2-(dimethylamino)-3-methylbutanamido)-N,3-dimethylbutanamido)-3-methoxy-5-methylheptanoyl)pyrrolidin-2-yl)-3-methoxy-2-methylpropanoate | 52
(S)-N-((3R,4S,SS)-1-((S)-2-((1R,2R)-3-((3-aminophenethyl)(hydroxy)amino)-1-methoxy-2-methyl-3-oxopropyl)pyrrolidin-1-yl)-3-methoxy-5-methyl-1-oxoheptan-4-yl)-2-((S)-2-(dimethylamino)-3-methylbutanamido)-N,3-dimethylbutanamide | 5.83
(S)-N-((3R,4S,5S)-1-((S)-2-((1R,2R)-3-(((S)-1-(3-aminophenyl)-but-3-yn-2-yl)amino)-1-methoxy-2-methyl-3-oxopropyl)pyrrolidin-1-yl)-3-methoxy-5-methyl-1-oxoheptan-4-yl)-2-((S)-2-(dimethylamino)-3-methylbutanamido)-N,3-dimethylbutanamide | 16.01
(S)-N-((3R,4S,55)-1-((S)-2-((1R,2R)-3-((S)-2-(3-aminophenyl)thiomorpholino)-1-methoxy-2-methyl-3-oxopropyl)pyrrolidin-1-yl)-3-methoxy-5-methyl-1-oxoheptan-4-yl)-2-((S)-2-(dimethylamino)-3-methylbutanamido)-N,3-dimethylbutanamide | 52.75
(R)-1-(3-aminophenyl)propan-2-yl (2R,3R)-3-((S)-1-((3R,4S,5S)-4-((S)-2-((S)-2-(dimethylamino)-3-methylbutanamido)-N,3-dimethylbutanamido)-3-methoxy-5-methylheptanoyl)pyrrolidin-2-yl)-3-methoxy-2-methylpropanoate | 52
(S)-N-((3R,4S,5S)-1-((S)-2-((1R,2R)-3-((3-aminophenethyl)(cyanomethyl)amino)-1-methoxy-2-methyl-3-oxopropyl)pyrrolidin-1-yl)-3-methoxy-5-methyl-1-oxoheptan-4-yl)-2-((S)-2-(dimethylamino)-3-methylbutanamido)-N,3-dimethylbutanamide | 85.76
(S)-N-((3R,4S,5S)-1-((S)-2-((1R,2R)-3-(allyl(3-aminophenethyl)amino)-1-methoxy-2-methyl-3-oxopropyl)pyrrolidin-1-yl)-3-methoxy-5-methyl-1-oxoheptan-4-yl)-2-((S)-2-(dimethylamino)-3-methylbutanamido)-N,3-dimethylbutanamide | 14.44
